Measurements taken from the supplement of paper PMC10849652.
The other results are listed elsewhere or left out.

By UniProt entry, the sequences of proteins in these tests, tags left out. Where a name states a change or a piece, a line headed by the entry shows the natural chain unless it says otherwise.
UniProt P08648, whole entry, looked up: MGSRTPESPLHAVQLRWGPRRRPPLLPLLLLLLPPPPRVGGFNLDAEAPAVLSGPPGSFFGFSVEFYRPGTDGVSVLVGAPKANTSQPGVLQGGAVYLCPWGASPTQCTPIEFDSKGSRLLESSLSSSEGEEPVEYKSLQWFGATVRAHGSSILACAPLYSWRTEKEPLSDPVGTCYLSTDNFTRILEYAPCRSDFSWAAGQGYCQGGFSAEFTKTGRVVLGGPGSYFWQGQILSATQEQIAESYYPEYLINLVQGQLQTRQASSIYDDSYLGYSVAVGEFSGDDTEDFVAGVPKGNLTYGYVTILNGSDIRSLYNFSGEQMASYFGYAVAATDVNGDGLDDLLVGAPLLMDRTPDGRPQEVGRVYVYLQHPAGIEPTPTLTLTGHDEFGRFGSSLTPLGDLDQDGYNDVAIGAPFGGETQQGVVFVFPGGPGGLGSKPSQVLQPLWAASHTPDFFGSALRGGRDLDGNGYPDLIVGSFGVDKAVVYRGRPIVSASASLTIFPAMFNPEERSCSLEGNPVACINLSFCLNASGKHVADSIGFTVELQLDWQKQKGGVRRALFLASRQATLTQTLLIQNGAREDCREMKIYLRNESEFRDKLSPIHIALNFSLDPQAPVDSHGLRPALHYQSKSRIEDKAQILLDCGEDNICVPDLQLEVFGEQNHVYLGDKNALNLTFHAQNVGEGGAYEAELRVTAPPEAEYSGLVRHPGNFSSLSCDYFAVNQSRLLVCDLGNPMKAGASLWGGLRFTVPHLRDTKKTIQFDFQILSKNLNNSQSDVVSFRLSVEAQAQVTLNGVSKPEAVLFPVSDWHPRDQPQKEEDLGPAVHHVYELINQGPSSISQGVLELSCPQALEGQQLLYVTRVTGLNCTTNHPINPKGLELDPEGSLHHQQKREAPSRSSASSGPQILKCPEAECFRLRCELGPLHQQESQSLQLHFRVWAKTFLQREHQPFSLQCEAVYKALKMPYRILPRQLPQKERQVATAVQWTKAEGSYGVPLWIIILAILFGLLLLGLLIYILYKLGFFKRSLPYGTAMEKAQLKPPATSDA
UniProt Q96AB3: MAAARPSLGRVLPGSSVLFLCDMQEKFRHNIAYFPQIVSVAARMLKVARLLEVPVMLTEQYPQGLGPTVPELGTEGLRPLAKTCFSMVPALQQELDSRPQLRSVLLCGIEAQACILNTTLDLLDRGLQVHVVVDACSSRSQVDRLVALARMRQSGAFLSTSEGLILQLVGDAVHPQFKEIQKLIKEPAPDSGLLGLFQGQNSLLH
UniProt P38570: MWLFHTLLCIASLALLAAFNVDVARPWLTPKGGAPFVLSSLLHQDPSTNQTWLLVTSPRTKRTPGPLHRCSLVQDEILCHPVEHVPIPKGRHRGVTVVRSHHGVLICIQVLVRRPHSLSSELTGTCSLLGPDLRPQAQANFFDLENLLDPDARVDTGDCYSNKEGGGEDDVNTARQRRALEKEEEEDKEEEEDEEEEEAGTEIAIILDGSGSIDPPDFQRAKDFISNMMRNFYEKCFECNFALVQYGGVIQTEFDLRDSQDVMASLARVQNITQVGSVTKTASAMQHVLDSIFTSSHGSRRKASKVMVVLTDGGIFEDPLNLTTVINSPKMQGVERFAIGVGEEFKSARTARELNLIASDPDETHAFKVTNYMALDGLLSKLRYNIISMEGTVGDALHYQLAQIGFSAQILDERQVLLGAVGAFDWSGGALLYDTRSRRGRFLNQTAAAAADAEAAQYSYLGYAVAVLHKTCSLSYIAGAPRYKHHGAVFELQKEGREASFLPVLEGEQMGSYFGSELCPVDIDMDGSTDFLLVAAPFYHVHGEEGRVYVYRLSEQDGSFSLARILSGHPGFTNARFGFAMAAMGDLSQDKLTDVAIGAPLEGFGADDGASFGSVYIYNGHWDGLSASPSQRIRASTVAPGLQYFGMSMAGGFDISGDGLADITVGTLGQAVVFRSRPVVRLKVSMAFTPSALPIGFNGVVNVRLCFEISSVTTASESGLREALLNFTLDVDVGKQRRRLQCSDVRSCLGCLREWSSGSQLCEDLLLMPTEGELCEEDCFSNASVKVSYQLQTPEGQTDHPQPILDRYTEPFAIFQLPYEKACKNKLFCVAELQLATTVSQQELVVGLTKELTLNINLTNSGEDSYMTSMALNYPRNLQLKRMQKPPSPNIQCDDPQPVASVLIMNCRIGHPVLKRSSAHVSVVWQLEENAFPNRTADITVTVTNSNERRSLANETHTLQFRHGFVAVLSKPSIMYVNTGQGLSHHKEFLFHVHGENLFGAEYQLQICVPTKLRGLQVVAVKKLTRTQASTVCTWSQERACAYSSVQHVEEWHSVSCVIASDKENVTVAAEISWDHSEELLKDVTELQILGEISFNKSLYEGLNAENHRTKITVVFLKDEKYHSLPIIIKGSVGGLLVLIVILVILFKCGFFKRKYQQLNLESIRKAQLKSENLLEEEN
UniProt Q9UL03, whole entry, looked up: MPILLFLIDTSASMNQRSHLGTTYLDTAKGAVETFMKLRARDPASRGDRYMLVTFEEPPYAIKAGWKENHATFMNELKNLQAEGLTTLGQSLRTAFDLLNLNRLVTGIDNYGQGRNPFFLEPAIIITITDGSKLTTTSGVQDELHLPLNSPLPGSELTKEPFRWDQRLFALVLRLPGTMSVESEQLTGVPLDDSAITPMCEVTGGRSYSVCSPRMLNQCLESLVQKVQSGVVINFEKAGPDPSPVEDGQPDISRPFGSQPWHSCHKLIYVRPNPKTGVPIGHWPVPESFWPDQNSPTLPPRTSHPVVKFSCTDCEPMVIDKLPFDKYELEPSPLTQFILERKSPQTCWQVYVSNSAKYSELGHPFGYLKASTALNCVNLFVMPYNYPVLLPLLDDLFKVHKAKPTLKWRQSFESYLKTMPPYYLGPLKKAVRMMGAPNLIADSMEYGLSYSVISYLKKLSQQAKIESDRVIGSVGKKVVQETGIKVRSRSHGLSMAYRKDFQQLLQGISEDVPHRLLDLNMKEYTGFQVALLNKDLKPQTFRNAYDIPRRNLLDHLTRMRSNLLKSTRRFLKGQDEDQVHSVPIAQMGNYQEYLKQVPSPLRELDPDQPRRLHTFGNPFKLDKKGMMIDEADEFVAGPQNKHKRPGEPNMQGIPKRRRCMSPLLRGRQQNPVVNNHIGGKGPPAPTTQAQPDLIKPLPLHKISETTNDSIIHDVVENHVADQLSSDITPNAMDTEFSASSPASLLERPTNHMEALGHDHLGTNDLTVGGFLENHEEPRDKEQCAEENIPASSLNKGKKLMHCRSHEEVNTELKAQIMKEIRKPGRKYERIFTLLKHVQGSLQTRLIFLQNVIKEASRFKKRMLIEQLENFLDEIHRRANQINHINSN
UniProt Q15046, whole entry, looked up: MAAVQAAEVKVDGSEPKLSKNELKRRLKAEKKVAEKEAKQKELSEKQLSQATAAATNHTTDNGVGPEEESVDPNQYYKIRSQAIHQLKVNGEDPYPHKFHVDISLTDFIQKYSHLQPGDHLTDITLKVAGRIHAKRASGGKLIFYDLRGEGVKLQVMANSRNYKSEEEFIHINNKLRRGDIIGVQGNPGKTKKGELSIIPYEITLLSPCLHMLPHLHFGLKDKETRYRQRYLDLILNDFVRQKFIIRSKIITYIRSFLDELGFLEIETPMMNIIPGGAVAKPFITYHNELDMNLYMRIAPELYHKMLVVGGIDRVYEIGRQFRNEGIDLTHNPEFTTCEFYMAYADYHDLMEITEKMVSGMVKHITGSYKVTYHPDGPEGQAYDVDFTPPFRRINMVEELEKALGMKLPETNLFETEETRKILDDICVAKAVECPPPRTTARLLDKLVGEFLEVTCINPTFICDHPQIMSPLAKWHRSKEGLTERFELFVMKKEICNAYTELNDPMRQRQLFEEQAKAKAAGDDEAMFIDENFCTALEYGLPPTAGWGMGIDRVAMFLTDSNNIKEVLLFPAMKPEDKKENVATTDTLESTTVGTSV
UniProt Q96DU7: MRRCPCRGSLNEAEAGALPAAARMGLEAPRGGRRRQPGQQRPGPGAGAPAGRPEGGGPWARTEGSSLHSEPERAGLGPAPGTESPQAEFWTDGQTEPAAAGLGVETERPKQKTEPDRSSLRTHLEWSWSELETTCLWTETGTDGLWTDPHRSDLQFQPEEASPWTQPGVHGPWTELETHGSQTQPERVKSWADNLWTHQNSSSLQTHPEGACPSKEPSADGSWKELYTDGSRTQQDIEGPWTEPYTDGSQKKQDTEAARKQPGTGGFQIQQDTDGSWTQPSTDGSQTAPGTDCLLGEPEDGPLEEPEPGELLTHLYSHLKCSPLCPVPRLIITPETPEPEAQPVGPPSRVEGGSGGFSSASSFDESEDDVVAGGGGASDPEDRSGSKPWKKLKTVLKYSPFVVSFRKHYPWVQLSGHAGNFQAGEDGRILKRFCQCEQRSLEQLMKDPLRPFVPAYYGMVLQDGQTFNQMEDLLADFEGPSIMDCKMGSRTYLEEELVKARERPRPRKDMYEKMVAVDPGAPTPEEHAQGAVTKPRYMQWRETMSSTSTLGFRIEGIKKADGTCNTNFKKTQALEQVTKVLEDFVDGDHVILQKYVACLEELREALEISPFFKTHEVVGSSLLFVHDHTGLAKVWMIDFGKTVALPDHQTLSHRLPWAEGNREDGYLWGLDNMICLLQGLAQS
UniProt Q13303: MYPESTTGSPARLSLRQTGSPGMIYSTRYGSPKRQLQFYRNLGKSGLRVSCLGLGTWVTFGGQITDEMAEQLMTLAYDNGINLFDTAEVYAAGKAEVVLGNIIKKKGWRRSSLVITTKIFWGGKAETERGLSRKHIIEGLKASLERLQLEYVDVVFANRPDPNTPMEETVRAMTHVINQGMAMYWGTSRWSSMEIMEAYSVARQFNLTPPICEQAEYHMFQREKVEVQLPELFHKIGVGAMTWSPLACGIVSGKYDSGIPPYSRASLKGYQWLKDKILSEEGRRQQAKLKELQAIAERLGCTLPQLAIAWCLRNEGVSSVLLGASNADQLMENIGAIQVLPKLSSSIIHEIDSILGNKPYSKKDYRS
UniProt P0C870: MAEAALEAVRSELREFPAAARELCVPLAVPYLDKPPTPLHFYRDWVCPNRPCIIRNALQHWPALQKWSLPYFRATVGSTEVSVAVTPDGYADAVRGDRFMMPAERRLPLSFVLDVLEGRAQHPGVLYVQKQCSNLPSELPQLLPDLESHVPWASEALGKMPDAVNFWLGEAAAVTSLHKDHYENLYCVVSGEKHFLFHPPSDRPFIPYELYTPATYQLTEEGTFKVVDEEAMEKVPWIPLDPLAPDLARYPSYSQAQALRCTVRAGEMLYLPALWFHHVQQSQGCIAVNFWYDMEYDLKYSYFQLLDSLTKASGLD
UniProt Q92993, whole entry, looked up: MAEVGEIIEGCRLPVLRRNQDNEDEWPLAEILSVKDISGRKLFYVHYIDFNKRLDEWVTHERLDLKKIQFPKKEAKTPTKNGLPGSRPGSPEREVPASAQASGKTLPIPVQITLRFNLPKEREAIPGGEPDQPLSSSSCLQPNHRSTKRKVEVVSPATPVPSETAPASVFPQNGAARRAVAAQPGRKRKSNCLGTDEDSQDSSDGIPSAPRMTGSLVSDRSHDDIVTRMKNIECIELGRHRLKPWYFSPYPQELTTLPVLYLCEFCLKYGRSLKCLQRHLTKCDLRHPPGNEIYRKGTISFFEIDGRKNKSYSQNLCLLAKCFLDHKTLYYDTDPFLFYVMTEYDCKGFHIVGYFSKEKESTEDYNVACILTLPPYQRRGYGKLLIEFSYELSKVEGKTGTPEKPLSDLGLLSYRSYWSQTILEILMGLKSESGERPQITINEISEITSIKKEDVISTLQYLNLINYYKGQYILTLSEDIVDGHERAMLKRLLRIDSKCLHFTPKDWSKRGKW
UniProt P18084: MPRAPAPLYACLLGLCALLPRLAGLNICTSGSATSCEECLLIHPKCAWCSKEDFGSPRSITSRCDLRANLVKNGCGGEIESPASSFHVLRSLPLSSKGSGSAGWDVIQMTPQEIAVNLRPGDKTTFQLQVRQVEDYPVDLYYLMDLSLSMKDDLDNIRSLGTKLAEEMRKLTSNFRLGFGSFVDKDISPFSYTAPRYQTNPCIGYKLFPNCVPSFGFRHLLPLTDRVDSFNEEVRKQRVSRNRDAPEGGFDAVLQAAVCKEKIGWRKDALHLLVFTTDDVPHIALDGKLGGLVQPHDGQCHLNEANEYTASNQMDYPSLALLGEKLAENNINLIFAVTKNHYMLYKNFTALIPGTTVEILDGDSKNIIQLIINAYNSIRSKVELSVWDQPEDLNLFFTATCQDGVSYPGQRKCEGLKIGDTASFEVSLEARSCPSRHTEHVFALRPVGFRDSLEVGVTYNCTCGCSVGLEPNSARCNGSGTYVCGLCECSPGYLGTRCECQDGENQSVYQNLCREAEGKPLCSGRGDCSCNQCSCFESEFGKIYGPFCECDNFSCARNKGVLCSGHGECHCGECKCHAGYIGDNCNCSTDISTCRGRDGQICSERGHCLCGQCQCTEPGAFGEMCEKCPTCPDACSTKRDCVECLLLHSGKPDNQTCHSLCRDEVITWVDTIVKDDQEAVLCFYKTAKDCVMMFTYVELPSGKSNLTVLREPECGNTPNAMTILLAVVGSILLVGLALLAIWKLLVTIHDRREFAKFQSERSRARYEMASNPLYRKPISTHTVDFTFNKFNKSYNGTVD

What follows are targets tested with COC(=O)N[C@@H](C)CNc1nccc(-c2cn(C(C)C)nc2-c2cc(Cl)cc(NS(C)(=O)=O)c2F)n1 [encorafenib] (assay: log2 fold change, soluble protein after heating vs DMSO (PISA); higher = thermal stabilisation; K562 lysate, 10 uM; active = over 0.2 and 3.5 SD of the protein, either way, in both replicates (recomputed)).
How it was run: (§1)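 Following dounce homogenisation of K562 pellets in PBS pH 7.4 with 1 mM MgCl2, crude extract at 1 mg/mL protein was incubated for 30 min with 10 μM compound. Aliquots were then heated for 3 min over 48°C-58°C and pooled, NP-40 was added to 0.5% at 4°C, and soluble protein was recovered as the supernatant at 21,000xg for 90 min. Channel-sum-equalised TMTpro 16plex LC-MS/MS quantified this protein. Each value, from duplicates, is a log-two fold change in thermal stability relative to solvent controls.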

log2 fold change, inactive:
KDELR1 (UniProt P24390) 0.034
IREB2 (UniProt P48200) -0.02
ITGA5 (UniProt P08648) 0.027
JMJD1C (UniProt Q15652) 0.067
ITPR1 (UniProt Q14643) 0.052
ITPRID2 (UniProt P28290) 0.073
KAT2A (UniProt Q92830) 0.055
KANSL1 (UniProt Q7Z3B3) 0.014
IRAK4 (UniProt Q9NWZ3) -0.032
KDM3A (UniProt Q9Y4C1) 0.007
IQSEC2 (UniProt Q5JU85) -0.076
KAT6B (UniProt Q8WYB5) -0.034
KDM2A (UniProt Q9Y2K7) 0.008
ISOC2 (UniProt Q96AB3) 0.014
ITGAE (UniProt P38570) 0.128
INTS7 (UniProt Q9NVH2) 0.067
INTS6 (UniProt Q9UL03) 0.293
KARS1 (UniProt Q15046) -0.028
IRF2BP1 (UniProt Q8IU81) 0.025
ITIH2 (UniProt P19823) 0.04
INTS5 (UniProt Q6P9B9) 0.02
ITPKC (UniProt Q96DU7) 0.032
IPP (UniProt Q9Y573) -0.138
KCNAB2 (UniProt Q13303) 0.062
KANK2 isoform 2 (UniProt Q63ZY3) 0.017
JMJD7 (UniProt P0C870) -0.086
ITPK1 (UniProt Q13572) -0.132
JAG2 (UniProt Q9Y219) 0.028
KAT5 isoform 3 (UniProt Q92993) -0.063
ITGB5 (UniProt P18084) -0.025

These targets were tested with COC(=O)[C@H](CCSC)NC(=O)C1=C(C=C(C=C1)NC[C@H](CS)N)C2=CC=CC=C2 in the same assay as above.
How it was run: as §1

log2 fold change, inactive:
KDELR1 (UniProt P24390) 0.065
IREB2 (UniProt P48200) 0.068
ITGA5 (UniProt P08648) -0.036
JMJD1C (UniProt Q15652) -0.001
ITPR1 (UniProt Q14643) 0.017
ITPRID2 (UniProt P28290) -0.017
KAT2A (UniProt Q92830) 0.257
KANSL1 (UniProt Q7Z3B3) 0.2
IRAK4 (UniProt Q9NWZ3) 0.032
KDM3A (UniProt Q9Y4C1) 0.035
IQSEC2 (UniProt Q5JU85) 0.04
KAT6B (UniProt Q8WYB5) 0.034
KDM2A (UniProt Q9Y2K7) 0.083
ISOC2 (UniProt Q96AB3) 0.122
ITGAE (UniProt P38570) -0.065
INTS7 (UniProt Q9NVH2) 0.017
INTS6 (UniProt Q9UL03) -0.001
IRF2BP1 (UniProt Q8IU81) 0.117
ITIH2 (UniProt P19823) -0.031
INTS5 (UniProt Q6P9B9) -0.259
ITPKC (UniProt Q96DU7) 0.112
IPP (UniProt Q9Y573) -0.171
KCNAB2 (UniProt Q13303) -0.155
KANK2 isoform 2 (UniProt Q63ZY3) 0.127
JMJD7 (UniProt P0C870) 0.101
ITPK1 (UniProt Q13572) -0.022
JAG2 (UniProt Q9Y219) 0.023
KAT5 isoform 3 (UniProt Q92993) 0.081
ITGB5 (UniProt P18084) 0.002

log2 fold change, active:
KARS1 (UniProt Q15046) 0.379

What follows are targets tested with COc1cc(Nc2ncc3c(n2)-c2ccc(Cl)cc2C(c2c(F)cccc2OC)=NC3)ccc1C(=O)O [alisertib] in the same assay as above.
How it was run: as §1

log2 fold change, inactive:
IREB2 (UniProt P48200) -0.007
ITGA5 (UniProt P08648) 0.001
JMJD1C (UniProt Q15652) -0.005
ITPRID2 (UniProt P28290) 0.057
KAT2A (UniProt Q92830) 0.054
KANSL1 (UniProt Q7Z3B3) -0.022
IRAK4 (UniProt Q9NWZ3) 0.006
KDM3A (UniProt Q9Y4C1) 0.079
IQSEC2 (UniProt Q5JU85) 0.013
KDM2A (UniProt Q9Y2K7) -0.016
ISOC2 (UniProt Q96AB3) 0.022
ITGAE (UniProt P38570) -0.07
KCNN4 (UniProt O15554) -0.335
INTS7 (UniProt Q9NVH2) -0.022
INTS6 (UniProt Q9UL03) 0
ITGA2B (UniProt P08514) -0.122
KARS1 (UniProt Q15046) 0.012
IQGAP3 (UniProt Q86VI3) -0.028
IRF2BP1 (UniProt Q8IU81) 0.042
ITIH2 (UniProt P19823) -0.04
INTS5 (UniProt Q6P9B9) 0.028
ITPKC (UniProt Q96DU7) -0.025
KCNAB2 (UniProt Q13303) -0.001
IRS2 (UniProt Q9Y4H2) 0.068
ITM2B (UniProt Q9Y287) 0.006
JMJD7 (UniProt P0C870) 0.04
ITPK1 (UniProt Q13572) -0.05
JAK2 (UniProt O60674) 0.076
KAT5 isoform 3 (UniProt Q92993) 0.03
ITGB5 (UniProt P18084) 0.016
